# Data published in publication PMC8684776, “Discovery and characterization of potent And‐1 inhibitors for cancer treatment” (Clinical and Translational Medicine, 2021).
# Protein sequences, listed by entry. Tags and fused reporters are not part of them.
# UniProt Q13620: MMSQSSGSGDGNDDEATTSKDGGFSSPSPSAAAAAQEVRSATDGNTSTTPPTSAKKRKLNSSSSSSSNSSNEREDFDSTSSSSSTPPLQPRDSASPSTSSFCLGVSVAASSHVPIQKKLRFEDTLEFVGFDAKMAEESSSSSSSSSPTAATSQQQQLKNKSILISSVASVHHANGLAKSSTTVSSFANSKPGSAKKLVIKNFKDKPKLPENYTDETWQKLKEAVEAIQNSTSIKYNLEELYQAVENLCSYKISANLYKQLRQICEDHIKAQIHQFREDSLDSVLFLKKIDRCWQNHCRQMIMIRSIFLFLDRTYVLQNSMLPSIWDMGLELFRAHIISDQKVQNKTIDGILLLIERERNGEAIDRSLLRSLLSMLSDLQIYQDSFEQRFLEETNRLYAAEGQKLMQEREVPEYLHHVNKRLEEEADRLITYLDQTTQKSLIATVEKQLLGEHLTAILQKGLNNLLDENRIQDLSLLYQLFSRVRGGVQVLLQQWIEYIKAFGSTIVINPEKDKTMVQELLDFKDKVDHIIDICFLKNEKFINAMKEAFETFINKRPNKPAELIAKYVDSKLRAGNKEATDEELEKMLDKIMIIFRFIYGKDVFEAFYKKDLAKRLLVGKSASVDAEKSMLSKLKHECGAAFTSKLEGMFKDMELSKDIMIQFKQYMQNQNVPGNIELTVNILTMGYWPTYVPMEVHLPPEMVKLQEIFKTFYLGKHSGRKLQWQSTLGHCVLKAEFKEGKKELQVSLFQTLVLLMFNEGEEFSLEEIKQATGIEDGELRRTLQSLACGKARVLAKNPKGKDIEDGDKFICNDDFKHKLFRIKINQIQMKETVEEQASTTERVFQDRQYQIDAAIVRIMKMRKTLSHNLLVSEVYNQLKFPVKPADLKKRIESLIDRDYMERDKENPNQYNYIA
# Positions count from the first letter of the chain named. These are yes or no findings as the source states them, for the method shown. In cells and extracts the contact can be indirect. Some binding calls cover weakened binding; strength is not graded here. Tags and fused reporters may be left off the sequences shown.
# B1: And‐1 (FLAG‐And‐1 and HA‐And‐1 expressed together) (protein, UniProt O75717 1-1129)
# chain: MPATRKPMRYGHTEGHTEVCFDDSGSFIVTCGSDGDVRIWEDLDDDDPKFINVGEKAYSCALKSGKLVTAVSNNTIQVHTFPEGVPDGILTRFTTNANHVVFNGDGTKIAAGSSDFLVKIVDVMDSSQQKTFRGHDAPVLSLSFDPKDIFLASASCDGSVRVWQISDQTCAISWPLLQKCNDVINAKSICRLAWQPKSGKLLAIPVEKSVKLYRRESWSHQFDLSDNFISQTLNIVTWSPCGQYLAAGSINGLIIVWNVETKDCMERVKHEKGYAICGLAWHPTCGRISYTDAEGNLGLLENVCDPSGKTSSSKVSSRVEKDYNDLFDGDDMSNAGDFLNDNAVEIPSFSKGIINDDEDDEDLMMASGRPRQRSHILEDDENSVDISMLKTGSSLLKEEEEDGQEGSIHNLPLVTSQRPFYDGPMPTPRQKPFQSGSTPLHLTHRFMVWNSIGIIRCYNDEQDNAIDVEFHDTSIHHATHLSNTLNYTIADLSHEAILLACESTDELASKLHCLHFSSWDSSKEWIIDLPQNEDIEAICLGQGWAAAATSALLLRLFTIGGVQKEVFSLAGPVVSMAGHGEQLFIVYHRGTGFDGDQCLGVQLLELGKKKKQILHGDPLPLTRKSYLAWIGFSAEGTPCYVDSEGIVRMLNRGLGNTWTPICNTREHCKGKSDHYWVVGIHENPQQLRCIPCKGSRFPPTLPRPAVAILSFKLPYCQIATEKGQMEEQFWRSVIFHNHLDYLAKNGYEYEESTKNQATKEQQELLMKMLALSCKLEREFRCVELADLMTQNAVNLAIKYASRSRKLILAQKLSELAVEKAAELTATQVEEEEEEEDFRKKLNAGYSNTATEWSQPRFRNQVEEDAEDSGEADDEEKPEIHKPGQNSFSKSTNSSDVSAKSGAVTFSSQGRVNPFKVSASSKEPAMSMNSARSTNILDNMGKSSKKSTALSRTTNNEKSPIIKPLIPKPKPKQASAASYFQKRNSQTNKTEEVKEENLKNVLSETPAICPPQNTENQRPKTGFQMWLEENRSNILSDNPDFSDEADIIKEGMIRFRVLSTEERKVWANKAKGETASEGTEAKKRKRVVDESDETENQEEKAKENLNLSKKQKPLDFSTNQKLSAFAFKQE
# Assays:
# [1] = target: T1, FLAG‐And‐1‐K130R (human) (UniProt O75717); experiment: co-IP; FLAG-And-1 or its mutants expressed in cells, endogenous CUL4B detected by immunoblot; cells treated with or without CH3 (also at several concentrations), followed by 10 uM MG132; precipitating antibody not stated for these panels
# T1 sequence: B1 chain with K130R
# [2] = target: T2, FLAG‐And‐1‐WT (acidic nucleoplasmic DNA‐binding protein 1) (human) (UniProt O75717); experiment: as above
# T2 sequence: B1 chain
# [3] = target: And‐1 (FLAG‐And‐1 and HA‐And‐1 expressed together) (human) (UniProt O75717); experiment: co-IP; U2OS cells transfected with both FLAG-And-1 and HA-And-1; treated with or without CH3, also at several concentrations
Molecule,binding [1],binding [2],binding [3]
Cullin 4B (from UniProt Q13620 1-913),binds,binds,–
B1,–,–,binds
